# Reference: PubChem BioAssay AID1671190 (National Center for Advancing Translational Sciences (NCATS), 2021)
# Protein sequences, listed by entry. Tags and fused reporters are not part of them. Lines headed by an entry give the natural chain unless they say otherwise; changes in a name come on top.
# UniProt P18054: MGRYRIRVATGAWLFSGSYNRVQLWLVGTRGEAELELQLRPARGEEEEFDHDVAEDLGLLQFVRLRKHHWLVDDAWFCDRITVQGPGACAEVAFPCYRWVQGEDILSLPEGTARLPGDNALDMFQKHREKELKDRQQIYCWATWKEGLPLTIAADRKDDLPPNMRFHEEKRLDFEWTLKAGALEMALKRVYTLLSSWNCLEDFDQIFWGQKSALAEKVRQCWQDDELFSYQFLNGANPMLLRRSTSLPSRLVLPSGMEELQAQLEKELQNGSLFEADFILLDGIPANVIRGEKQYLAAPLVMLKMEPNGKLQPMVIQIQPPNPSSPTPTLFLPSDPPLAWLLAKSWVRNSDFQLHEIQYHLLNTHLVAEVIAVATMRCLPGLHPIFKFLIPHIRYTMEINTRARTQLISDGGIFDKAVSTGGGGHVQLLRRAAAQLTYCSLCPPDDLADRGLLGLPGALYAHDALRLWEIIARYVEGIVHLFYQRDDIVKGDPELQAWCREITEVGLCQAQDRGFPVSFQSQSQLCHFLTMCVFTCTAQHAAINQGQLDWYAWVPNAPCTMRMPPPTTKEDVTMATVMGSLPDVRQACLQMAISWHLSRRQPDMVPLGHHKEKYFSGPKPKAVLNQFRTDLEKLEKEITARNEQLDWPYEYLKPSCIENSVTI
# In all, about 580,000 compounds went through this assay and about 6,100 (1.1%) were called active. This list was built around the results that the source calls inconclusive (neither active nor inactive); the mix of calls is not that of the screen. The call rests on the fitted dose curve; in most records, active means well fitted inhibition curve with a large enough effect; inconclusive means small, poorly fitted or top-dose-only effect, or another doubt; inactive means no such curve, though single readings can be large or run the other way. Potencies of inconclusive entries are doubtful fits and often do not repeat.
# Target: Polyunsaturated fatty acid lipoxygenase ALOX12 (Homo sapiens) (UniProt P18054)
# Test: Primary qHTS assay for inhibitors of human arachidonate 12S-lipoxygenase (ALOX12): Round 2
# Details: purified 12hLO, xylenol orange hydroperoxide absorbance; activity change, negative = inhibition: at 108 µM (top of the series) unless noted
# Summary of the method: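 Purified human 12hLO at 150 nM in 25 mM Hepes, 0.01% Triton X-100, pH 7.0, preincubated 15 min at room temperature with compound. Reaction started with 40 uM arachidonic acid, 30 min at room temperature. Hydroperoxide measured by Fe-xylenol orange, 573/405 nm absorbance ratio.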
# On the % scale 0 is the no-effect control and ±100 the full control effect; potency means the concentration at half of the fitted maximal effect.
Structure (SMILES),"activity change, negative = inhibition",Potency
Cc1nn(C)c(C)c1-c1ccnc(NCC2CC(=O)N(C3CCCC3)C2)n1 (stereo not drawn),inactive: 80.5%,
CCOc1ccc(C(=O)NC(=S)Nc2ccc(NC(=O)CC)cc2)cc1[N+](=O)[O-],,"inconclusive: 11.2 µM [inhibitor, full curve]"
N#CC1=C(N)n2c(s/c(=C\c3ccco3)c2=O)=C(C#N)C1c1ccco1 (stereo not drawn),,active: 12.6 µM
O=C(Nc1ccc(F)cc1)C(c1cc2ccccc2o1)N1CCN(c2cccc(C(F)(F)F)n2)CC1 (stereo not drawn),inactive: -3.39%,
COc1ccc(S(=O)(=O)N2CCCCC2)cc1NC(=O)c1ccc(Cl)nc1,,"inconclusive: 28.2 µM [inhibitor, partial curve, poor fit]"
Cc1ccc2nc(N(CCCN(C)C)C(=O)c3cc4ccccc4oc3=O)sc2c1,,"inconclusive: 39.8 µM [inhibitor, partial curve, poor fit]"
CCCNC(=O)C1CN(S(=O)(=O)c2ccc(C)cc2)c2ccccc2O1 (stereo not drawn),inactive: 10.9%,
Cc1ccc2nc(-c3ccc(C)c(C)c3)cc(C(=O)O)c2c1,,"inconclusive: 11.2 µM [inhibitor, full curve]"
O=C1CSc2ccc(C(=O)Nc3cccc4ccccc34)cc2N1,inactive: 5.67%,
CN(C)c1oc(-c2ccco2)nc1S(=O)(=O)c1ccc(Cl)cc1,,"inconclusive: 79.4 µM [inhibitor, single point]"
COc1ccc(S(=O)(=O)N2CCCC2C(=O)Nc2nccs2)cc1 (stereo not drawn),,"inconclusive: 50.1 µM [inhibitor, partial curve, poor fit]"
CCCNC(=O)CC1CCCN(c2cnn(C)c(=O)c2)C1 (stereo not drawn),inactive: 13.3%,
O=C(C1CCCC1)N1CC2(CCN(Cc3ccc(Cl)cc3)C2)Cc2ccccc21 (stereo not drawn),,"inconclusive: 11.2 µM [inhibitor, full curve]"
O=C(COC(=O)c1n[nH]c(=O)c2ccccc12)NC(=O)Cc1ccccc1,,"inconclusive: 56.2 µM [inhibitor, partial curve, poor fit]"
NC(CN1CCCC1)C1CCCCC1 (stereo not drawn),,"inconclusive: 5.81 µM [inhibitor, single point]"
O=C(NC1CCCc2c1cnn2-c1ccccc1F)c1ccncc1 (stereo not drawn),,"inconclusive: 44.7 µM [inhibitor, partial curve, poor fit]"
OC(COc1cc(Cl)c(Cl)cc1Cl)CN1CCN(c2ncccn2)CC1 (stereo not drawn),,"inconclusive: 89.1 µM [inhibitor, partial curve, poor fit]"
COC(=O)/C(=C/c1c[nH]c2ccccc12)[N+](=O)[O-],,"inconclusive: 39.8 µM [inhibitor, partial curve]"
CCOC(=O)c1cccc(NS(=O)(=O)c2c(-c3ccc(C)cc3)csc2C(=O)OC)c1,,"inconclusive: 35.5 µM [inhibitor, partial curve, poor fit]"
COc1ccc(N2CCN(C(=O)C(=O)c3cn(CC(=O)N4CCCCCC4)c4ccccc34)CC2)cc1,inactive: -0.777%,
CC(C)Nc1cc(N2CCN(C3CCCCC3)CC2)c2noc3c2c1C(=O)c1ccccc1-3,inactive: 7.93%,
CCC(c1nnnn1C1CCCC1)N1CCN(c2ccccc2F)CC1 (stereo not drawn),inactive: 4.04%,
COc1ccccc1N1CCN(C(=O)CSc2nc(C)cc(=O)[nH]2)CC1,,"inconclusive: 100 µM [inhibitor, partial curve, poor fit]"

Structure (SMILES),"activity change, negative = inhibition",Potency
NCCn1cc(C(=O)N2CCC(c3n[nH]c(=O)n3-c3ccccc3)CC2)nn1,,"inconclusive: 0.631 µM [inhibitor, full curve, poor fit]"
Brc1ccc(-c2csc(NNC3=NCCCCC3)n2)cc1,,"inconclusive: 79.4 µM [inhibitor, single point]"
c1ccc2oc(-c3ccn[nH]3)cc2c1,inactive: 0%,
O=C([C@H]1C[C@H](Oc2ccccc2)CN1C(=O)c1ccccc1)N1CCOCC1,inactive: 17%,
COC(=O)c1sc2ccccc2c1S(=O)(=O)N1CCN(c2cc(C)ccc2C)CC1,,"inconclusive: 44.7 µM [inhibitor, partial curve, poor fit]"
COc1cc(Cl)ccc1OC1(C)CCN(Cc2ccc(-c3ccccn3)cc2)C1 (stereo not drawn),,"inconclusive: 44.7 µM [inhibitor, partial curve, poor fit]"
CC(C)c1ccc(CC(=O)N2CCC2(C)C(=O)NS(=O)(=O)c2ccc(Cl)s2)cc1 (stereo not drawn),inactive: -0.799%,
COc1ccc(NC(=O)CNc2ccccc2N2CCCC2=O)cc1S(=O)(=O)N1CCOCC1,inactive: -8.55%,
CCOc1ccc(CNC(=O)C(C)n2ncn3cccc3c2=O)cc1 (stereo not drawn),inactive: -21.3%,
O=C1NC[C@H](c2ccccc2)OC(=O)[C@H](Cc2ccc(F)cc2)CC/C=C/C[C@@H]1CC(=O)N(CCO)Cc1ccccc1,,"inconclusive: 44.7 µM [inhibitor, partial curve, poor fit]"
CCOC(=O)C(C)Sc1nc2c(c(-c3cccs3)c1C#N)CCC2 (stereo not drawn),inactive: -15.7%,
CCOC(=O)N1CCN(C2=C(NS(=O)(=O)c3ccc(C)cc3)C(=O)c3ccccc3C2=O)CC1,,"inconclusive: 44.7 µM [inhibitor, partial curve, poor fit]"
CC1CN=C(c2cc(Cl)c(N)c(Cl)c2)c2c3ccccc3[n+]([O-])n21 (stereo not drawn),,"inconclusive: 50.1 µM [inhibitor, single point]"
O=C(Nc1nnc(N2CCCC2)s1)Nc1cc(F)ccc1F,inconclusive: -31.1% [inhibitor],
O=C(NC[C@H]1OC[C@@H](NCc2cnc[nH]2)[C@@H]1O)C1CCCC1,inactive: -0.0215% [at 176 µM],
C=C1N(S(=O)(=O)C(F)(F)F)CCC12CN(S(=O)(=O)c1ccc(C)cc1)c1ccccc12 (stereo not drawn),inactive: 0.407%,
Cc1ccc(N2CCN(CCCN3C(=O)C4CCCN4C3=O)CC2)cc1 (stereo not drawn),,"inconclusive: 10 µM [inhibitor, full curve, poor fit]"
COc1ccc(C(CNC(=O)c2cccc(S(=O)(=O)Nc3ccccc3OC)c2)N2CCCCC2)cc1 (stereo not drawn),,"inconclusive: 56.2 µM [inhibitor, partial curve, poor fit]"
CN1CCC(N(Cc2cccs2)c2ccccc2)CC1,,"inconclusive: 10.2 µM [inhibitor, partial curve, poor fit]"
Oc1cccnc1Sc1cccc(C(F)(F)F)c1,,"inconclusive: 89.1 µM [inhibitor, single point]"
N#Cc1cccc(Oc2cccc(-c3cnc4ccccc4n3)c2)c1C#N,,"inconclusive: 126 µM [inhibitor, single point]"
Cc1oc(-c2cccc(Cl)c2)nc1CN1CCC(C(=O)NCc2ccc(F)cc2)CC1,,"inconclusive: 28.2 µM [inhibitor, partial curve]"
COCCNC(=S)N/N=C/c1ccc(OCc2ccc(C(=O)OC)cc2)cc1,inactive: -9.14%,

Structure (SMILES),"activity change, negative = inhibition",Potency
Cc1cc(Cl)ccc1Nc1nc(N2CCOCC2)nc2nccnc12,inactive: -12.7%,
CCc1ccc(S(=O)(=O)NCCOc2cccc3cccnc23)cc1,,"inconclusive: 35.5 µM [inhibitor, partial curve, poor fit]"
CC(=O)c1ccc(NC(=O)CSc2nnc(C(C)N3C(=O)COc4ccccc43)n2C)cc1 (stereo not drawn),inactive: -25.2%,
Cc1ccc2nc(-c3ccc(N)cc3)cc(C(=O)O)c2c1,,"inconclusive: 79.4 µM [inhibitor, single point]"
CC(C)(C)c1ccc(-c2csc(NC(=O)COCc3nc4ccccc4c(=O)[nH]3)n2)cc1,,"inconclusive: 100 µM [inhibitor, single point]"
Cc1ccc(NC2CCCN(C(=O)CCN3CCCCO3)C2)cc1C (stereo not drawn),inactive: 9.11%,
COCCNC(=S)Nc1ccc(N2CCOCC2)c(S(=O)(=O)Nc2ccc(Cl)cc2)c1,,active: 5.01 µM
Cc1cccc2nc(CSc3nnc4ccccn34)cn12,,"inconclusive: 35.5 µM [inhibitor, single point]"
COc1ccc(NC(=O)C[C@H]2C(=O)N(c3ccc(OC)cc3)C[C@@H]2c2ccc(Br)cc2)cc1,,"inconclusive: 50.1 µM [inhibitor, partial curve, poor fit]"
COc1ccc(-c2oc3c(c2C#CCCCCO)C(OCCO)CC3)cc1 (stereo not drawn),,"inconclusive: 50.1 µM [inhibitor, partial curve, poor fit]"
O=C(N[C@@H](Cc1ccccc1)C(=O)O)c1cccs1,,"inconclusive: 44.7 µM [inhibitor, partial curve, poor fit]"
Cc1cc(C(=O)Nc2sc3c(c2C#N)CCCCC3)cs1,inactive: -16.9%,
Nn1c(-c2ccc(F)cc2)nc2ccccc2c1=O,,"inconclusive: 89.1 µM [inhibitor, single point]"
CC(C)NC(=O)c1c(Cl)cccc1Cl,inactive: 9.78%,
CN(C)Cc1nc2ccccc2c(=O)n1Cc1nc(-c2cc3ccccc3o2)cs1,inactive: 19.2%,
Cc1c(C(=O)Nc2ccc3oc(-c4cccc(F)c4)nc3c2)cccc1[N+](=O)[O-],,"inconclusive: 39.8 µM [inhibitor, partial curve, poor fit]"
O=C(Nc1cccc(C(F)(F)F)c1)N[C@H]1CC[C@@]23CCCN2C(=O)CCC[C@H]3C1Cc1ccccc1 (stereo partly drawn),,"inconclusive: 141 µM [inhibitor, single point]"
CCN1C(=O)CCc2cc(NC(=O)Cc3ccc(F)cc3)ccc21,inactive: 27.9%,
Cc1cc2c(n1-c1ccc(C(=O)NCc3cccc(Br)c3)cc1)CCC(C)C2 (stereo not drawn),,"inconclusive: 141 µM [inhibitor, partial curve, poor fit]"
Cc1occc1C(=O)Nc1nn[nH]n1,,"inconclusive: 31.6 µM [inhibitor, partial curve, poor fit]"
CC1(C2(O)CCCCC2)NCCc2ccccc21 (stereo not drawn),,"inconclusive: 2.24 µM [inhibitor, full curve]"
Cc1ccc(C(=O)NC(=S)Nn2cnnc2)cc1,,"inconclusive: 2.82 µM [inhibitor, full curve, poor fit]"

# A draw from above in order of length of the SMILES, descending.
Structure (SMILES),"activity change, negative = inhibition",Potency
O=C(Nc1ccc(F)cc1)C(c1cc2ccccc2o1)N1CCN(c2cccc(C(F)(F)F)n2)CC1 (stereo not drawn),inactive: -3.39%,
O=C(NC[C@H]1OC[C@@H](NCc2cnc[nH]2)[C@@H]1O)C1CCCC1,inactive: -0.0215% [at 176 µM],
Cc1ccc(C(=O)NC(=S)Nn2cnnc2)cc1,,"inconclusive: 2.82 µM [inhibitor, full curve, poor fit]"
